For the experiment, the target named is T1, Retinol-binding protein 1 (UniProt P09455).
T1 sequence: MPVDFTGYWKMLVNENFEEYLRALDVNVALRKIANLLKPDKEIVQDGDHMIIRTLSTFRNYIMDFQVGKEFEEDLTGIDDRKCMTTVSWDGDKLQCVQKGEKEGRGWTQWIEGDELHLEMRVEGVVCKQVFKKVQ
Put plainly: affinity purification with mass spectrometry; Co-IP followed by MS on the lysate of SCC15 cells transfected with RBP1 or CKAP4.

By UniProt entry, the sequences of proteins in these tests, tags left out.
UniProt Q07065: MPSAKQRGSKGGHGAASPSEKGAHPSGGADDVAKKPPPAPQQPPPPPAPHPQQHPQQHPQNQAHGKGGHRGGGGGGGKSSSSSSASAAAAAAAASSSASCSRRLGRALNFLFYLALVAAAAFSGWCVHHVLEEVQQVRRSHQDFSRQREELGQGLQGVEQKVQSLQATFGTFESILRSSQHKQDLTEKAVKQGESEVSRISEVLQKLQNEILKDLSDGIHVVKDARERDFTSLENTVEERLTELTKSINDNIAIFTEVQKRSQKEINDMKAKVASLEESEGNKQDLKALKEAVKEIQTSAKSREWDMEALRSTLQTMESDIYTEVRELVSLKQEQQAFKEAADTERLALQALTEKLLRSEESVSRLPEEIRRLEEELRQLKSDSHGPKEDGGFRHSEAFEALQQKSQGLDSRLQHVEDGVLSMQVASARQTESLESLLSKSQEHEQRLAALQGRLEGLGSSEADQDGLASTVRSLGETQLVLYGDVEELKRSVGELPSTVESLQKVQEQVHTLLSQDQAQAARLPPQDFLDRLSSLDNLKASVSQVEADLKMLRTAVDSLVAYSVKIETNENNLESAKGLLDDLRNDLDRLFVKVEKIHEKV

Results are given in words; binding and its absence hold for the method and conditions named. Binding seen in cells or lysates may run through a third protein. These calls come from enrichment with a bait or labelling near it, and not all partners need be listed.

With “Cytoskeleton-associated protein 4 (from UniProt Q07065 1-602)”, the binding result is recorded as “binds”.

The record behind these values is paper PMC7316825.
